Measured values: paper PMC12973532

Chains of the proteins cited; added tags and fusions are not shown.
UniProt O00264: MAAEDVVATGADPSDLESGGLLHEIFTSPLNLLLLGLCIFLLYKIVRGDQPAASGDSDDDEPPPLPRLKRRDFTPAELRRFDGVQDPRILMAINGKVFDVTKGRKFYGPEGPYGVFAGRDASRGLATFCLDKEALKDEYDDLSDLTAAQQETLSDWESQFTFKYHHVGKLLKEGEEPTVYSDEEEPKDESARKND

Assays:
[1] = biological target: FLAG-tagged PGRMC1 (human progesterone receptor membrane component 1) (human) (UniProt O00264); experiment: affinity purification with mass spectrometry; FLAG-PGRMC1 stably expressed in HepG2 cells as bait; isolated mitochondria lysed, affinity purification by FLAG; prey filtered with CRAPome, fold-change threshold 1.5; empty-vector cells as control
[2] = biological target: FLAG-tagged PGRMC1 (human progesterone receptor membrane component 1) (human) (UniProt O00264); experiment: affinity purification with mass spectrometry; FLAG-PGRMC1 stably expressed in HEK293T cells as bait; isolated mitochondria lysed, affinity purification by FLAG; prey filtered with CRAPome, fold-change threshold 2; empty-vector cells as control

binding [1]	binding [2]	Binder
binds	binds	TMEM214 (human) (protein, UniProt Q6NUQ4 1-689) MATKTAGVGRWEVVKKGRRPGVGAGAGGRGGGRNRRALGEANGVWKYDLTPAIQTTSTLYERGFENIMKRQNKEQVPPPAVEPKKPGNKKQPKKVATPPNQNQKQGRFRSLEEALKALDVADLQKELDKSQSVFSGNPSIWLKDLASYLNYKLQAPLSEPTLSQHTHDYPYSLVSRELRGIIRGLLAKAAGSLELFFDHCLFTMLQELDKTPGESLHGYRICIQAILQDKPKIATANLGKFLELLRSHQSRPAKCLTIMWALGQAGFANLTEGLKVWLGIMLPVLGIKSLSPFAITYLDRLLLMHPNLTKGFGMIGPKDFFPLLDFAYMPNNSLTPSLQEQLCQLYPRLKVLAFGAKPDSTLHTYFPSFLSRATPSCPPEMKKELLSSLTECLTVDPLSASVWRQLYPKHLSQSSLLLEHLLSSWEQIPKKVQKSLQETIQSLKLTNQELLRKGSSNNQDVVTCDMACKGLLQQVQGPRLPWTRLLLLLLVFAVGFLCHDLRSHSSFQASLTGRLLRSSGFLPASQQACAKLYSYSLQGYSWLGETLPLWGSHLLTVVRPSLQLAWAHTNATVSFLSAHCASHLAWFGDSLTSLSQRLQIQLPDSVNQLLRYLRELPLLFHQNVLLPLWHLLLEALAWAQEHCHEACRGEVTWDCMKTQLSEAVHWTWLCLQDITVAFLDWALALISQQ
binds	binds	TBRG4 (human) (protein, UniProt Q969Z0 108-631) SHLLSEKPEDKGLLIQDAHFHQLLCLLNSQIASVWHGTLSKLLGSLYALGIPKASKELQSVEQEVRWRMRKLKYKHLAFLAESCATLSQEQHSQELLAELLTHLERRWTEIEDSHTLVTVMMKVGHLSEPLMNRLEDKCLELVEHFGPNELRKVLVMLAAQSRRSVPLLRAISYHLVQKPFSLTKDVLLDVAYAYGKLSFHQTQVSQRLATDLLSLMPSLTSGEVAHCAKSFALLKWLSLPLFEAFAQHVLNRAQDITLPHLCSVLLAFARLNFHPDQEDQFFSLVHEKLGSELPGLEPALQVDLVWALCVLQQAREAELQAVLHPEFHIQFLGGKSQKDQNTFQKLLHINATALLEYPEYSGPLLPASAVAPGPSALDRKVTPLQKELQETLKGLLGSADKGSLEVATQYGWVLDAEVLLDSDGEFLPVRDFVAPHLAQPTGSQSPPPGSKRLAFLRWEFPNFNSRSKDLLGRFVLARRHIVAAGFLIVDVPFYEWLELKSEWQKGAYLKDKMRKAVAEELAK

Continued, binder first:

Binder	binding [1]	binding [2]
BDH1 (human) (protein, UniProt Q02338 47-343) ASAAEPVGSKAVLVTGCDSGFGFSLAKHLHSKGFLVFAGCLMKDKGHDGVKELDSLNSDRLRTVQLNVCSSEEVEKVVEIVRSSLKDPEKGMWGLVNNAGISTFGEVEFTSLETYKQVAEVNLWGTVRMTKSFLPLIRRAKGRVVNISSMLGRMANPARSPYCITKFGVEAFSDCLRYEMYPLGVKVSVVEPGNFIAATSLYSPESIQAIAKKMWEELPEVVRKDYGKKYFDEKIAKMETYCSSGSTDTSPVIDAVTHALTATTPYTRYHPMDYYWWLRMQIMTHLPGAISDMIYIR	binds	binds
RPN1 (human) (protein, UniProt P04843 24-607) ASSEAPPLINEDVKRTVDLSSHLAKVTAEVVLAHLGGGSTSRATSFLLALEPELEARLAHLGVQVKGEDEEENNLEVRETKIKGKSGRFFTVKLPVALDPGAKISVIVETVYTHVLHPYPTQITQSEKQFVVFEGNHYFYSPYPTKTQTMRVKLASRNVESYTKLGNPTRSEDLLDYGPFRDVPAYSQDTFKVHYENNSPFLTITSMTRVIEVSHWGNIAVEENVDLKHTGAVLKGPFSRYDYQRQPDSGISSIRSFKTILPAAAQDVYYRDEIGNVSTSHLLILDDSVEMEIRPRFPLFGGWKTHYIVGYNLPSYEYLYNLGDQYALKMRFVDHVFDEQVIDSLTVKIILPEGAKNIEIDSPYEISRAPDELHYTYLDTFGRPVIVAYKKNLVEQHIQDIVVHYTFNKVLMLQEPLLVVAAFYILFFTVIIYVRLDFSITKDPAAEARMKVACITEQVLTLVNKRIGLYRHFDETVNRYKQSRDISTLNSGKKSLETEHKALTSEIALLQSRLKTEGSDLCDRVSEMQKLDAQVKELVLKSAVEAERLVAGKLKKDTYIENEKLISGKRQELVTKIDHILDAL	binds	binds

No constants are given. Whether binding was seen depends on the method and setting. In cells and extracts the contact can be indirect. These calls come from enrichment with a bait or labelling near it, and not all partners need be listed.
